In EP0381057A2, “Chemical composition for external application” (Sansho Seiyaku Co., Ltd., priority 1989, dated 1990):
The name of at least one read-out is uncertain.

System: B16 cells
Assay: test of formation of melanin by B16 cells (whitening test of incubated color cells, reflection density by densitometer)
Format: cell-based, Mouse
Conditions: fatty acid alone

Compound: CCCCC/C=C\C/C=C\C/C=C\C/C=C\CCCC(=O)O [Arachidonic Acid, arachidonic acid]
- Whitened Degree (0.001 mM): -
- Whitened Degree (0.01 mM): -
- Whitened Degree (0.1 mM): +
- Whitened Degree (0.5 mM): +
